PubChem BioAssay AID1259254 – NCATS, 2017
Shown is a random part of about 59,000 reagents. In the full data, about 1,550 (2.6%) got an active call. 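G2 share is only a proxy for re-replication; each gene was hit by three separate siRNAs, and active genes were retested.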 Raw values vary from plate to plate and are shown uncorrected. The numbers tell different reagents against one gene apart. Reagent sequences are not shown. Not stated in the record: the amount of reagent.

- Purpose: 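Gene knock-downs that lead to re-replication, shown by excess G2 DNA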 (primary screen)
- Cells: human HCT116 colorectal cancer cells
- Knock-down reagent: single siRNA against human genes
- Duration: 3 days
- Read-out: 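Imaged Hoechst DNA stain sorts each cell into a cycle phase by DNA amount; per plate, G2 fraction set to 0% for non-targeting and 100% for GMNN siRNA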
- Scale: G2 robust z-score and G2 cells, % of GMNN control: higher = more G2 cells, more excess DNA replication; raw share of cells in G2: higher = larger share of cells with G2 DNA content
- Active means: 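An siRNA counts as active if its G2 robust z-score lies at least 5 MADs above the screen median; here such calls match roughly 38% of GMNN control or more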

| target | reagent | G2 robust z-score | G2 cells, % of GMNN control | raw share of cells in G2 (%) | outcome |
| --- | --- | --- | --- | --- | --- |
| ARMC8 | 1 | 1.22 | 11.6 | 8.77 | inactive |
| ARMC8 | 2 | 2.54 | 20.9 | 13 | inactive |
| ARMC8 | 3 | 1.16 | 11.1 | 7.18 | inactive |
| RACK1 | 1 | -0.0208 | 2.82 | 6.61 | inactive |
| RACK1 | 2 | -0.869 | -3.14 | 2.63 | inactive |
| RACK1 | 3 | 0.782 | 8.47 | 6.49 | inactive |
| PRRG4 | 1 | 0.592 | 7.14 | 7.69 | inactive |
| PRRG4 | 2 | 0.234 | 4.61 | 6.68 | inactive |
| PRRG4 | 3 | -0.34 | 0.574 | 2.85 | inactive |
| USP39 | 1 | -0.828 | -2.86 | 4.56 | inactive |
| USP39 | 2 | 1.79 | 15.6 | 10.4 | inactive |
| USP39 | 3 | -0.265 | 1.1 | 4.32 | inactive |
| RNASE4 | 1 | 3.56 | 28 | 13.5 | inactive |
| RNASE4 | 2 | 0.412 | 5.86 | 7 | inactive |
| RNASE4 | 3 | -1.03 | -4.29 | 3.04 | inactive |
| KAAG1 | 1 | -0.417 | 0.0361 | 4 | inactive |
| KAAG1 | 2 | 0.223 | 4.54 | 5.24 | inactive |
| KAAG1 | 3 | 0.447 | 6.11 | 6.65 | inactive |
| CHST10 | 1 | 1.48 | 13.4 | 10.2 | inactive |
| CHST10 | 2 | 0 | 2.97 | 6.32 | inactive |
| CHST10 | 3 | 0.198 | 4.36 | 4.69 | inactive |
| PCDHB4 | 1 | 0.242 | 4.67 | 6.28 | inactive |
| PCDHB4 | 2 | -0.523 | -0.712 | 4.18 | inactive |
| PCDHB4 | 3 | -1.12 | -4.88 | 4.29 | inactive |
| VCPIP1 | 1 | -0.525 | -0.724 | 4.14 | inactive |
| VCPIP1 | 2 | -0.453 | -0.223 | 4.21 | inactive |
| VCPIP1 | 3 | -0.534 | -0.793 | 2.16 | inactive |
| PLEKHN1 | 1 | -1.39 | -6.85 | 1.83 | inactive |
| PLEKHN1 | 2 | 0.81 | 8.66 | 6.03 | inactive |
| PLEKHN1 | 3 | 0.139 | 3.94 | 3.6 | inactive |
| CARD9 | 1 | 7.83 | 58.1 | 29.7 | active |
| CARD9 | 2 | -0.0247 | 2.79 | 5.34 | inactive |
| CARD9 | 3 | -0.995 | -4.03 | 2.76 | inactive |
| TMED4 | 1 | -0.816 | -2.77 | 3.54 | inactive |
| TMED4 | 2 | 1.54 | 13.8 | 9.75 | inactive |
| TMED4 | 3 | 0.904 | 9.33 | 10.4 | inactive |
| OR4K2 | 1 | -0.801 | -2.67 | 3.49 | inactive |
| OR4K2 | 2 | -0.696 | -1.93 | 3.11 | inactive |
| OR4K2 | 3 | 0.0277 | 3.16 | 4.78 | inactive |

Just “raw share of cells in G2 (%)” (6 entries from above):
CHST10 #2: 6.32
CHST10 #3: 4.69
PCDHB4 #1: 6.28
PCDHB4 #2: 4.18
PCDHB4 #3: 4.29
VCPIP1 #1: 4.14

The listing continues.
| target | reagent | G2 robust z-score | G2 cells, % of GMNN control | raw share of cells in G2 (%) | outcome |
| --- | --- | --- | --- | --- | --- |
| GNG8 | 1 | 0.178 | 4.22 | 5.87 | inactive |
| GNG8 | 2 | -0.0372 | 2.71 | 4.26 | inactive |
| GNG8 | 3 | -0.305 | 0.822 | 3.33 | inactive |
| FERMT1 | 1 | 4.49 | 34.5 | 17.8 | inactive |
| FERMT1 | 2 | 1.36 | 12.6 | 9.35 | inactive |
| FERMT1 | 3 | -0.817 | -2.78 | 2.25 | inactive |
| HTN1 | 1 | -0.386 | 0.252 | 3.62 | inactive |
| HTN1 | 2 | 0.375 | 5.6 | 7.93 | inactive |
| HTN1 | 3 | -0.172 | 1.76 | 4.73 | inactive |
| PHF12 | 1 | 2.81 | 22.7 | 10.8 | inactive |
| PHF12 | 2 | 1.69 | 14.8 | 12.6 | inactive |
| PHF12 | 3 | 0.0429 | 3.27 | 4.66 | inactive |
| LINC00847 | 1 | -0.753 | -2.33 | 2.32 | inactive |
| LINC00847 | 2 | -0.719 | -2.09 | 3.27 | inactive |
| LINC00847 | 3 | 0.266 | 4.84 | 4.85 | inactive |
| OR2A4 | 1 | 1.92 | 16.5 | 11.7 | inactive |
| OR2A4 | 2 | -0.656 | -1.65 | 3.87 | inactive |
| OR2A4 | 3 | 2.58 | 21.1 | 8.27 | inactive |
| OVCH2 | 1 | -0.19 | 1.63 | 6.29 | inactive |
| OVCH2 | 2 | 7.69 | 57.1 | 23.3 | active |
| OVCH2 | 3 | 0.267 | 4.84 | 6.06 | inactive |
| TACO1 | 1 | 2.18 | 18.3 | 10.8 | inactive |
| TACO1 | 2 | -1.15 | -5.14 | 2.61 | inactive |
| TACO1 | 3 | 0.0432 | 3.27 | 4.28 | inactive |
| MRPS26 | 1 | -0.874 | -3.18 | 3.19 | inactive |
| MRPS26 | 2 | 2.98 | 23.9 | 15.3 | inactive |
| MRPS26 | 3 | -0.868 | -3.14 | 1.87 | inactive |
| LMF1 | 1 | -0.909 | -3.43 | 3.09 | inactive |
| LMF1 | 2 | 0.294 | 5.04 | 6.87 | inactive |
| LMF1 | 3 | 1.24 | 11.7 | 5.79 | inactive |
